Experimental data from article PMC8359084, “WRAP-based nanoparticles for siRNA delivery: a SAR study and a comparison with lipid-based transfection reagents” (Journal of Nanobiotechnology, 2021).

Experiment: Circular dichroism (CD) of peptides in the presence of siRNA
Format: physicochemical
Details: peptide:siRNA complexes R = 20, CPP 10 µM, siRNA 0.5 µM

Row | Sequence | Helix (CD), helix signal in CD measurements
1 | LLRLLRWWWRLLRLL [W5] | YES
2 | RLLWRLWLWRLLR [W1-4R, R analogue of W1] | YES
3 | LLRLWWRLLRWWLRLL [W1-Mix, W-mix analogue of W1] | YES
4 | LWRLWRLLWRLWRLL [W1-2L, Δ L analogue of W1] | YES
5 | LLWRLWRLWRLWRLL [W1-Lm, Δ L analogue of W1] | YES
6 | RLLRLLWWWLLRLLR [W5-4R, R analogue of W5] | YES
7 | RLLRLLRWWWRLLRLLR [W5-6R, R analogue of W5] | YES
8 | LLWRLWRLLWRLWRLL [W1] | YES
9 | RLLWRLWRLLWRLWRLLR [W1-6R, R analogue of W1] | YES
